These are yes or no findings as the source states them, for the method shown. In cells and extracts the contact can be indirect. Some binding calls cover weakened binding; strength is not graded here. Tags and fused reporters may be left off the sequences shown.
T1: HA-tagged GIGYF1 (full-length) (UniProt O75420)
T1 sequence: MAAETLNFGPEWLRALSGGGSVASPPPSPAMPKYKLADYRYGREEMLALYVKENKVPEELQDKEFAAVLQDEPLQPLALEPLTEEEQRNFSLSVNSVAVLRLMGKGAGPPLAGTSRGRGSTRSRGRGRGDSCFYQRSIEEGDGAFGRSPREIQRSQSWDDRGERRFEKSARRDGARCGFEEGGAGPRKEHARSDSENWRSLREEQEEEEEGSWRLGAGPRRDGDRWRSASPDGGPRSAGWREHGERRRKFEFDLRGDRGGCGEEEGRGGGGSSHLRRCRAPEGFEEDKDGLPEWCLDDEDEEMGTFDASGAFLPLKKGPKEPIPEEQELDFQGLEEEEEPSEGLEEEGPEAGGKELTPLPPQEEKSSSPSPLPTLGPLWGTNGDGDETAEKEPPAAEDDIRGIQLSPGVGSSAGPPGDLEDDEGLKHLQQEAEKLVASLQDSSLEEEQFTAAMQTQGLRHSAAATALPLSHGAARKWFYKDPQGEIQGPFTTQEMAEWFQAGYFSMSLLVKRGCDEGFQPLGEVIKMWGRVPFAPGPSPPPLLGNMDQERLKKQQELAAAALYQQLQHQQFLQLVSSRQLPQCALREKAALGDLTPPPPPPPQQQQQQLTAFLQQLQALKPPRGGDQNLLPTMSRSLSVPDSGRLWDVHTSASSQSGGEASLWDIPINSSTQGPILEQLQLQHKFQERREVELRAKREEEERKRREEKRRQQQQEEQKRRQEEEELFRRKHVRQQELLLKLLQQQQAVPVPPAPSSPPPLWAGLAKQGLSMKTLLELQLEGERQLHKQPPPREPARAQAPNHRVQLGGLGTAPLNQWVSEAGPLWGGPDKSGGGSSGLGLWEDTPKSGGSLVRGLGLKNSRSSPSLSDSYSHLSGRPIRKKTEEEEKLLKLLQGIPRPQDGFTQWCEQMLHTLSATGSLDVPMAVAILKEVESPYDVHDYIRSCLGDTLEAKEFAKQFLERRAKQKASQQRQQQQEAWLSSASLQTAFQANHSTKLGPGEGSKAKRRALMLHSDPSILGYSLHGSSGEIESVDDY

Amino acid sequences for entries named in this document (tags omitted). Residues count along the entry.
UniProt P08069, residues 31-1367: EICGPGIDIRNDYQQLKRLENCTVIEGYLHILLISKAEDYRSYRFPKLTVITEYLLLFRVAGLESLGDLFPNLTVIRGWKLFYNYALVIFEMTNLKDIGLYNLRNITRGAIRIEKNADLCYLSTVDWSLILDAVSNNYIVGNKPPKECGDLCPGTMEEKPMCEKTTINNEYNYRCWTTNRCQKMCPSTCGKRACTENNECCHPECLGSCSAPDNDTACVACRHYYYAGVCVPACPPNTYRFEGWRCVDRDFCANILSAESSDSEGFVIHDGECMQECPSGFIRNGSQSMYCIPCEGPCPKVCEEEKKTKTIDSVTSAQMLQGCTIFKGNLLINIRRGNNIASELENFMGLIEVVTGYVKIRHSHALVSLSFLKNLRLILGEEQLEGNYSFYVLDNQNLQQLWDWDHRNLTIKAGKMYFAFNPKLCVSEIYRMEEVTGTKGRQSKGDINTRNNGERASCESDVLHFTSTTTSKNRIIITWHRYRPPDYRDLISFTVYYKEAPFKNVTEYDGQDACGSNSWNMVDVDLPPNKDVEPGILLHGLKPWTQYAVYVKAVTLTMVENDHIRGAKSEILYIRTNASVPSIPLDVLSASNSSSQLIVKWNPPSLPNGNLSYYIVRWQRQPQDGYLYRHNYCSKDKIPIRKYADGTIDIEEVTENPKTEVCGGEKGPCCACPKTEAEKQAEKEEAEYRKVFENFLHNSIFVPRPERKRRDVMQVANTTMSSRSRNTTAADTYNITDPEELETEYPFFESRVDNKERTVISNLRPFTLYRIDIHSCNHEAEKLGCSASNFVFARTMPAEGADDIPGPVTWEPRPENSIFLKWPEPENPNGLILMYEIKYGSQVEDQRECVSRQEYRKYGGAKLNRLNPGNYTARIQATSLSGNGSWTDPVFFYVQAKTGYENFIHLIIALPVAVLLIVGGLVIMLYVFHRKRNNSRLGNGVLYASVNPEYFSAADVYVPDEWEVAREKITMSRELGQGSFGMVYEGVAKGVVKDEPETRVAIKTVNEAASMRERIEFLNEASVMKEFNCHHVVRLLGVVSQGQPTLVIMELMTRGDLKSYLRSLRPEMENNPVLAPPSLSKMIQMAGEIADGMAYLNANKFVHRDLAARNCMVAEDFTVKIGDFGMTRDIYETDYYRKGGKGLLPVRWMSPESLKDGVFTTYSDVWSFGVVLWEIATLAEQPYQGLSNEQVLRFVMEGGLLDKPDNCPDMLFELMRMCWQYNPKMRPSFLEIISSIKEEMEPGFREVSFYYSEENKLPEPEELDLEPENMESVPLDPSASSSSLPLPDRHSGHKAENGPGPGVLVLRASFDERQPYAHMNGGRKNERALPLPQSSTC


Assays:
[1] = target: T1, HA-tagged GIGYF1 (full-length); assay: co-IP; HEK293T cells cotransfected with HA-GIGYF1 and 3xFlag-IGF-1R, lysed after 24 hours in NP40 lysis buffer; supernatants incubated with anti-HA or anti-Flag immunomagnetic beads overnight at 4°C, washed with PBST 3 times, detected by Western blotting
[2] = target: Flag-tagged IGF-1R (UniProt P08069); assay: as above

binding [1] | binding [2] | Molecule
binds | – | Flag-tagged IGF-1R (from UniProt P08069 31-1367) (receptor)
– | binds | HA-tagged GIGYF1 (full-length) (protein, UniProt O75420 1-1035) MAAETLNFGPEWLRALSGGGSVASPPPSPAMPKYKLADYRYGREEMLALYVKENKVPEELQDKEFAAVLQDEPLQPLALEPLTEEEQRNFSLSVNSVAVLRLMGKGAGPPLAGTSRGRGSTRSRGRGRGDSCFYQRSIEEGDGAFGRSPREIQRSQSWDDRGERRFEKSARRDGARCGFEEGGAGPRKEHARSDSENWRSLREEQEEEEEGSWRLGAGPRRDGDRWRSASPDGGPRSAGWREHGERRRKFEFDLRGDRGGCGEEEGRGGGGSSHLRRCRAPEGFEEDKDGLPEWCLDDEDEEMGTFDASGAFLPLKKGPKEPIPEEQELDFQGLEEEEEPSEGLEEEGPEAGGKELTPLPPQEEKSSSPSPLPTLGPLWGTNGDGDETAEKEPPAAEDDIRGIQLSPGVGSSAGPPGDLEDDEGLKHLQQEAEKLVASLQDSSLEEEQFTAAMQTQGLRHSAAATALPLSHGAARKWFYKDPQGEIQGPFTTQEMAEWFQAGYFSMSLLVKRGCDEGFQPLGEVIKMWGRVPFAPGPSPPPLLGNMDQERLKKQQELAAAALYQQLQHQQFLQLVSSRQLPQCALREKAALGDLTPPPPPPPQQQQQQLTAFLQQLQALKPPRGGDQNLLPTMSRSLSVPDSGRLWDVHTSASSQSGGEASLWDIPINSSTQGPILEQLQLQHKFQERREVELRAKREEEERKRREEKRRQQQQEEQKRRQEEEELFRRKHVRQQELLLKLLQQQQAVPVPPAPSSPPPLWAGLAKQGLSMKTLLELQLEGERQLHKQPPPREPARAQAPNHRVQLGGLGTAPLNQWVSEAGPLWGGPDKSGGGSSGLGLWEDTPKSGGSLVRGLGLKNSRSSPSLSDSYSHLSGRPIRKKTEEEEKLLKLLQGIPRPQDGFTQWCEQMLHTLSATGSLDVPMAVAILKEVESPYDVHDYIRSCLGDTLEAKEFAKQFLERRAKQKASQQRQQQQEAWLSSASLQTAFQANHSTKLGPGEGSKAKRRALMLHSDPSILGYSLHGSSGEIESVDDY
